Reference: US6365711
No constants are given. Whether binding was seen depends on the method and setting. Some results given as binding are weak or reduced against the parent protein; the word gives no strength.

Amino acid sequences for entries named in this document (tags omitted). A change or cut given only in a name is not applied to a line headed by its entry. Residues count along the entry.
UniProt Q15797, residues 249-465: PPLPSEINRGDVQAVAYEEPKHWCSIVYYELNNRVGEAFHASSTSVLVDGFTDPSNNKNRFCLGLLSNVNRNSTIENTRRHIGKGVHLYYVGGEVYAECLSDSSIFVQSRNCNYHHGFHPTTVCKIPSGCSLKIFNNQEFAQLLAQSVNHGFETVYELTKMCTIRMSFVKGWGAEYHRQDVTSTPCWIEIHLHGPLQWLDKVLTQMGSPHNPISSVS
UniProt P97471, residues 1-548: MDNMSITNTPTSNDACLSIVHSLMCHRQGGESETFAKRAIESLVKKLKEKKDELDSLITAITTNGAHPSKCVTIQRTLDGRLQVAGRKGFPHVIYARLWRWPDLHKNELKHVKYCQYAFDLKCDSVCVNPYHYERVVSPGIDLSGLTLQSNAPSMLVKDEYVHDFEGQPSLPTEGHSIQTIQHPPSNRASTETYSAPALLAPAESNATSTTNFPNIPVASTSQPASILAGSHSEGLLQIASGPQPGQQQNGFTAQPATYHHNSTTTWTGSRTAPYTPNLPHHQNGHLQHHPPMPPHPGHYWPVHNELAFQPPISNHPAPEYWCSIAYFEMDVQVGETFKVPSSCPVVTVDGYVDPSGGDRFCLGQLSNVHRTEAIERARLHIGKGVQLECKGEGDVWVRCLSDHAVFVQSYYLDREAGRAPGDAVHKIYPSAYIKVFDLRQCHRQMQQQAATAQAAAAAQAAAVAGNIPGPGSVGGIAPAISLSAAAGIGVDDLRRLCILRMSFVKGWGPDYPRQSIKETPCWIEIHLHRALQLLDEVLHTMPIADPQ
UniProt O70436: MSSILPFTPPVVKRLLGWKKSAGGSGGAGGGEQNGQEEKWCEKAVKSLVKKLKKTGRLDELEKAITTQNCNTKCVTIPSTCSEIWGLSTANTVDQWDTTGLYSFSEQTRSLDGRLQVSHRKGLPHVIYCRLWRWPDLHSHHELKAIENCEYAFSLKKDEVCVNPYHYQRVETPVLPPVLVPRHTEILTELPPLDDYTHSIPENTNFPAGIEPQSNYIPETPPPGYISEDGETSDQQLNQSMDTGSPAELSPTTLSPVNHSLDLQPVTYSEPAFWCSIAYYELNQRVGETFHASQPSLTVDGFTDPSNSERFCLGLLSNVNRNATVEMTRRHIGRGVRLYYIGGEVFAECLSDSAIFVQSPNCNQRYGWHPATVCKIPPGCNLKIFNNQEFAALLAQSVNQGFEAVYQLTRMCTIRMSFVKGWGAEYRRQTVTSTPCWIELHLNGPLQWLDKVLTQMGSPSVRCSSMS
UniProt P04386: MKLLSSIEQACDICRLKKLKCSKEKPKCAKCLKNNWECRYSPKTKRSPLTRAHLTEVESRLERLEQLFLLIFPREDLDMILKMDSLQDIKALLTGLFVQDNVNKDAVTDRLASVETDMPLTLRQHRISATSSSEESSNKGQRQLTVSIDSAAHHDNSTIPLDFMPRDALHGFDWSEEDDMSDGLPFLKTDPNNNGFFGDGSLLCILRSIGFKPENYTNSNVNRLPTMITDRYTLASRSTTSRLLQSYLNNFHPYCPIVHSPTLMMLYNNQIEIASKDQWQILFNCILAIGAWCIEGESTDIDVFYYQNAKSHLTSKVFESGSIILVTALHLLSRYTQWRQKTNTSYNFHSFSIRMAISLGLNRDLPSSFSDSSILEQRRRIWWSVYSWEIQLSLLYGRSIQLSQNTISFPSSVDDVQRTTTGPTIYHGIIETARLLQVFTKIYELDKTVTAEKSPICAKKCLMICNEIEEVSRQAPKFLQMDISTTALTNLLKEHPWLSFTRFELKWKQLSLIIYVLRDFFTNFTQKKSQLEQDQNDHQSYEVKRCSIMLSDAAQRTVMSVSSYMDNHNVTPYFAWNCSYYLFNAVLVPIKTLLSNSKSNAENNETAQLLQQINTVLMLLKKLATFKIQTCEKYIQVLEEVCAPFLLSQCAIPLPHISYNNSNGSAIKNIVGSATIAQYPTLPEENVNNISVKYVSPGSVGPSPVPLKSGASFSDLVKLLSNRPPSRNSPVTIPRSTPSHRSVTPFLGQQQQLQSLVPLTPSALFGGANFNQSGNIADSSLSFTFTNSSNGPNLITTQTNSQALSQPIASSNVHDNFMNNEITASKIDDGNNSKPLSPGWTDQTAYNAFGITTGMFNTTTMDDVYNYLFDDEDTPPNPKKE

Key:
[1] = target: human Smad1 MH2 domain (aa249 to aa465) GAL4 activation domain fusion (human) (UniProt Q15797); assay: yeast two-hybrid, X-gal colony lift filter assay (color intensity)
[2] = target: full-length mouse Smad4 (aa1 to aa548) GAL4 activation domain fusion (mouse) (UniProt P97471); assay: as above
[3] = target: Xenopus Smad2 MH2 domain (aa248 to aa467) GAL4 activation domain fusion (Xenopus) (UniProt O70436); assay: as above
[4] = target: full-length mouse Smad4 (aa1 to aa548) GAL4 activation domain fusion (mouse) (UniProt P97471); assay: yeast two-hybrid
[5] = target: Xenopus Smad2 MH2 domain (aa248 to aa467) GAL4 activation domain fusion (Xenopus) (UniProt O70436); assay: yeast two-hybrid

binding [1]: binds
binding [2]: binds
binding [3]: binds
binding [4]: binds
binding [5]: binds
Substance: Smad4 (FL) GAL4 DNA-binding domain fusion (from UniProt P04386 1-147; P97471 1-548)
